# According to paper PMC12507020:
# Chains of the proteins cited; added tags and fusions are not shown.
# UniProt P52294: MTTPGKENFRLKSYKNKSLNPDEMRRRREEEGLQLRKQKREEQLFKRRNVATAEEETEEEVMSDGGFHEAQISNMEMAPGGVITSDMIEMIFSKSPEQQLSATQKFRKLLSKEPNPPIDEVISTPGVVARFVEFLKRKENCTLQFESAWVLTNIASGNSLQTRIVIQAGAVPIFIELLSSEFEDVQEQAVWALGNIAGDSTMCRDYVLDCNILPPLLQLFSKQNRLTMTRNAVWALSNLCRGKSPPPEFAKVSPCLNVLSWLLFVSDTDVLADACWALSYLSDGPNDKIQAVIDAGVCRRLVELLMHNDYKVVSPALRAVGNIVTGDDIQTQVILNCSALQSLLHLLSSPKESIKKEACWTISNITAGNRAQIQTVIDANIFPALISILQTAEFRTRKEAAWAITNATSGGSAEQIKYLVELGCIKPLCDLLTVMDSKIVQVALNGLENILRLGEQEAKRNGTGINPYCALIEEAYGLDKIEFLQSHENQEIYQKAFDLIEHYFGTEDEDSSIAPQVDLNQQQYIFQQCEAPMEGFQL
# UniProt O00629: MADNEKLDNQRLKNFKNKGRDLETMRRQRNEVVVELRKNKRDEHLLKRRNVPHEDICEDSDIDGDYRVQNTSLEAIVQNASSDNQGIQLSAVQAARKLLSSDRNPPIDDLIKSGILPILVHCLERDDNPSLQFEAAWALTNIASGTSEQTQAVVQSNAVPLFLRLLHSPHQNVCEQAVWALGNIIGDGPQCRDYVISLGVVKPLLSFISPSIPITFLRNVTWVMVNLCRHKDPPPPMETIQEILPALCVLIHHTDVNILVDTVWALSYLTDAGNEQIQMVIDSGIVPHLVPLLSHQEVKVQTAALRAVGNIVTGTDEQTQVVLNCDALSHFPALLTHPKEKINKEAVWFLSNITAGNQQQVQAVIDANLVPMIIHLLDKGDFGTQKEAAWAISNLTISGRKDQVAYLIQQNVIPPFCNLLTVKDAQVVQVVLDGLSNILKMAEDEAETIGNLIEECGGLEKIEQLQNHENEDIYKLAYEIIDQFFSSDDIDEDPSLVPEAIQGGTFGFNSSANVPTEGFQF
# These are yes or no findings as the source states them, for the method shown. In cells and extracts the contact can be indirect. Tags and fused reporters may be left off the sequences shown.
# Biological target: T1, HA-PKCζ (protein kinase C zeta), wild type (human) (UniProt Q05513)
# T1 sequence: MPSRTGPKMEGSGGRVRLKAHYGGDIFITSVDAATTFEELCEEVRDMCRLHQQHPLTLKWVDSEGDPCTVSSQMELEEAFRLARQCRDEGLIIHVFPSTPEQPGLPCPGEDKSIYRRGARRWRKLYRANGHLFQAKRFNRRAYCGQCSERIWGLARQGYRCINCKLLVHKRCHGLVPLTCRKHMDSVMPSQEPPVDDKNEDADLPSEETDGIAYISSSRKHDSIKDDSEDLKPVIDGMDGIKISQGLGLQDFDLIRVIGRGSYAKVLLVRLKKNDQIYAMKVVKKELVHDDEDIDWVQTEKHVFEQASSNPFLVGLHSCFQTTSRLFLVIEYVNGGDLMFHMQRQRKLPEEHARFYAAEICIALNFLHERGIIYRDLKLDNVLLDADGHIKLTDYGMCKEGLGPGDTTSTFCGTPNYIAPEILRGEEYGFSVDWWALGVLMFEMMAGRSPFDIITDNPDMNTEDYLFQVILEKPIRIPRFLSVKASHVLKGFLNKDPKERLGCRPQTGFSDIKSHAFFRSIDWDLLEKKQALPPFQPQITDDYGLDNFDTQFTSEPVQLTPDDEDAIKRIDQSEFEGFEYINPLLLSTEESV
# Experiment: co-IP; 293T cells transfected with HA-PKCζ (wild type, C48A or deletion mutants); exogenous Co-IP: anti-HA beads or anti-Flag beads with equal amounts of total protein overnight, washed three times (20 mmol/L Tris-HCl, 250 mmol/L NaCl, 0.2 mmol/L EGTA, 0.1% Nonidet P-40), western blot; cells untreated or treated with glucose starvation 2 h, metformin 10 mmol/L 12 h, NAC 10 mmol/L, H2O2 1 mmol/L 30 min
substance,measurement,value
KPNA1 (importin α5) (from UniProt P52294 1-538),binding,no binding
KPNA4 (importin α3) (from UniProt O00629 1-521),binding,no binding
